# About 5,400 (1.8%) of roughly 300,000 compounds were called active. Inconclusive results, whose numbers are uncertain, are shown with a selection of clear calls. The call rests on the fitted dose curve; tested in HEK293 cells. Potencies beside an inconclusive call are fits to weak or partial responses and may not hold up.
# Test: qHTS for inhibitors of binding or entry into cells for Marburg Virus
# Conditions: Marburg virus pseudotyped entry inhibition, cell reporter; activity change, negative = inhibition: at 37.8 µM (top of the series) unless noted
# On the % scale 0 is the no-effect control and ±100 the full control effect; potency means the concentration at half of the fitted maximal effect.
SMILES,Potency,"activity change, negative = inhibition"
Cc1cccc(OCCOCCSc2ncccn2)c1,"inconclusive: 12.6 µM [activator, single point]",
CN(CC(=O)Nc1cccc(F)c1)CC(=O)N(C)CC(=O)Nc1ccccc1Br,,inactive: 4.26%
CC(=O)Nc1ccc(S(=O)(=O)NNC(=S)NCc2ccco2)cc1,"inconclusive: 3.55 µM [activator, single point]",
CC(=O)Nc1ccc(S(=O)(=O)Nc2nccc(/C=C/c3ccc(Cl)cc3)n2)cc1,"inconclusive: 35.5 µM [activator, single point]",
Cc1cccc(-n2c(=O)c3ccccc3n(Cc3ccccc3)c2=O)c1,"inconclusive: 7.08 µM [activator, partial curve]",
COc1ccc(CNC(=O)C(c2ccncc2)N(C(=O)Cc2cccs2)c2ccccc2C)cc1 (centres undefined),"inconclusive: 0.0164 µM [inhibitor, full curve, poor fit]",
O=C(CCCOc1ccc(Cl)cc1Cl)N/N=C/c1ccccc1O,"inconclusive: 31.6 µM [inhibitor, single point]",
CC1CCC(C(C)C)C(OCC(O)CN2CCCC(C)C2)C1 (centres undefined),"inconclusive: 3.55 µM [inhibitor, full curve, poor fit]",
CC(C)CCNC(=O)C(c1ccco1)N(Cc1ccccc1)C(=O)c1snc(C(N)=O)c1N (centres undefined),,inactive: -22.1%
Cc1ccc(NC(=O)CN(C)CC(=O)Nc2cccc(F)c2)cc1[N+](=O)[O-],"inconclusive: 15.8 µM [inhibitor, single point]",
CCN(CC(=O)Nc1ccccc1C(F)(F)F)C(=O)c1ccc2c(c1)NC(=O)CS2,"inconclusive: 35.5 µM [inhibitor, single point]",
O=C(COC(=O)c1ccco1)Nc1nc2c(F)c(F)c(F)cc2s1,,inactive: 5% [at 46.1 µM]
COc1ccccc1NC(=O)/C(C#N)=C/c1ccc(OCCN2CCOCC2)c(OC)c1,,inactive: -0.689%
COc1ccc(COC(=O)N/N=C2/C[C@@H](O)[C@@H](O)[C@@H]3[C@@H]4C(=O)N(C5CCCCC5)C(=O)[C@H]4CC[C@H]23)cc1,"inconclusive: 0.944 µM [activator, single point]",
Cc1[nH]c2ccccc2c1C(Nc1nccs1)c1ccncc1 (centres undefined),,inactive: -10.5%
CCCCCCCCCCCCCCCCC(C(=O)O)C(O)(CC(=O)O)C(=O)O (centres undefined),inconclusive: 0.0003 µM [activator],
CCOc1cc(C)c(Cl)cc1S(=O)(=O)N1CCCC1,,inactive: -18.7%
Cc1nc2c(OCc3ccccc3)cccn2c1CC#N,"inconclusive: 0.891 µM [inhibitor, full curve]",
CC(Sc1nc(-c2ccccc2)cc(C(F)(F)F)n1)C(=O)NCc1ccco1 (centres undefined),"inconclusive: 11.2 µM [inhibitor, partial curve, poor fit]",
O=C(NCc1ccco1)c1ccc2c(c1)N(Cc1c(F)cccc1Cl)C(=O)c1ccccc1S2,"inconclusive: 25.1 µM [inhibitor, partial curve, poor fit]",
COc1cc2c(cc1OC)C(C)N(C(=O)c1cc3c(C)cc(C)cc3[nH]1)CC2 (centres undefined),active: 3.16 µM,
COc1ccc(-c2c(C)nn3c(C(F)(F)F)cc(-c4ccccc4)nc23)cc1,,inactive: 1.04% [at 46.1 µM]

SMILES,Potency,"activity change, negative = inhibition"
O=C(N/N=C/c1cc2ccccc2nc1Cl)[C@H]1C[C@@H]1c1ccccc1,"inconclusive: 4.47 µM [inhibitor, partial curve, poor fit]",
CSc1nnc(-c2cccs2)n1C,"inconclusive: 0.501 µM [activator, full curve, poor fit]",
CSc1nc(SCCN(C)C)c2c3c(sc2n1)COC(C)(C)C3,"inconclusive: 35.5 µM [inhibitor, single point]",
CCC1(c2ccccc2)NC(=O)N(CC(=O)Nc2cc(Cl)ccc2N2CCOCC2)C1=O (centres undefined),"inconclusive: 35.5 µM [inhibitor, single point]",
NC(=O)c1ccsc1NC(=O)c1nc(-c2ccccc2)n(-c2ccccc2)n1,"inconclusive: 32.6 µM [inhibitor, single point]",
COC(=O)N/N=C(\C)c1ccc(OC(F)F)cc1,"inconclusive: 35.5 µM [activator, single point]",
O=C(CCCOc1ccc(Cl)cc1Cl)Nc1ccccn1,,inactive: 5.63% [at 46.1 µM]
CC(C)c1ccccc1NC(=O)COc1ccc(C(=O)NCCc2ccccc2)cc1,"inconclusive: 7.94 µM [inhibitor, partial curve, poor fit]",
CN(C)CC(C)(C)CNC(=S)NCc1ccc2c(c1)OCO2,"inconclusive: 6.31 µM [activator, partial curve, poor fit]",
O=[N+]([O-])c1ccc(NC(=S)N2CCc3ccccc32)cc1,,inactive: -18.8% [at 46.1 µM]
O=C(Cc1ccc(Cl)c(Cl)c1)OCC(=O)c1ccc[nH]1,,inactive: 8.05%
Cc1ccc(S(=O)(=O)N2CCN(CC(=O)N3CCOCC3)CC2)cc1,"inconclusive: 6.31 µM [activator, single point]",
COc1ccc(-c2cc(C(=O)NN)n(-c3ccccc3)n2)cc1,"inconclusive: 4.47 µM [activator, single point]",
CCC(Oc1ccccc1)C(=O)N1CCC(C(N)=O)CC1 (centres undefined),,inactive: 0.808%
COc1cccc(/C=N/n2c(N)nc3ccccc32)c1OC,"inconclusive: 20.6 µM [inhibitor, single point]",
CC(C)(C)NC(=O)/C=N/O,,inconclusive: 23.8% [activator]
CCOc1ccccc1NC(=O)Cn1nnc(C(=O)NCc2ccc(F)cc2)c1N,"inconclusive: 1.78 µM [inhibitor, partial curve, poor fit]",
O=C(N/N=C/c1c[nH]c2ccccc12)C1CC1(c1ccccc1)c1ccccc1 (centres undefined),"inconclusive: 12.6 µM [inhibitor, single point]",
CCC(=O)N1CCN(c2ccc(NC(=S)NC(=O)c3ccc(OC)c([N+](=O)[O-])c3)cc2)CC1,"inconclusive: 35.5 µM [inhibitor, single point]",
CC(C)(Oc1ccc(Cl)cc1)C(=O)NCCN1C(=O)S/C(=C/c2cccnc2)C1=O,,inactive: -41.3%
CCC(C(=O)NC1CCC(C)CC1)n1nc(C)c2sc3ccccc3c2c1=O (centres undefined),,inactive: 13.4% [at 46.1 µM]
COc1cccc([C@@H]2NC(=O)CC=C[C@H](C)[C@H](c3cccc(OC)c3)NC(=O)CC=C[C@H]2C)c1,,inactive: 15.8% [at 14.2 µM]

# A stretch from further up:
SMILES,Potency,"activity change, negative = inhibition"
CCC(C(=O)NC1CCC(C)CC1)n1nc(C)c2sc3ccccc3c2c1=O (centres undefined),,inactive: 13.4% [at 46.1 µM]
COc1cccc([C@@H]2NC(=O)CC=C[C@H](C)[C@H](c3cccc(OC)c3)NC(=O)CC=C[C@H]2C)c1,,inactive: 15.8% [at 14.2 µM]
